Measured values: doi:10.1101/2020.10.13.337683
Results are given in words; binding and its absence hold for the method and conditions named. Binding seen in cells or lysates may run through a third protein. Some entries that bind do so weakly or less than the wild type. Tags and fused reporters may be left off the sequences shown.

Protein sequences, listed by entry. Tags and fused reporters are not part of them.
UniProt P0A9A6: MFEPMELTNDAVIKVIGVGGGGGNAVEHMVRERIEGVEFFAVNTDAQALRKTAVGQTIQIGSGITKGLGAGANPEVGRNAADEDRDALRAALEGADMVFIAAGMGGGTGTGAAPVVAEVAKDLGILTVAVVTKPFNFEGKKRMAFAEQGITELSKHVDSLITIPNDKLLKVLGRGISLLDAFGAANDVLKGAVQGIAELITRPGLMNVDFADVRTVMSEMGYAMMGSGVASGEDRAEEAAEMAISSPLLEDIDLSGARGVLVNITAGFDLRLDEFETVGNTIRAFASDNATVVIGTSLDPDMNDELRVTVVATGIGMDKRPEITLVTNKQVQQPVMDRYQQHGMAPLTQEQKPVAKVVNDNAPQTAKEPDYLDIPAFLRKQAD

Target: T1, N-terminal GFP tagged MutS (E. coli) (UniProt P23909)
T1 sequence: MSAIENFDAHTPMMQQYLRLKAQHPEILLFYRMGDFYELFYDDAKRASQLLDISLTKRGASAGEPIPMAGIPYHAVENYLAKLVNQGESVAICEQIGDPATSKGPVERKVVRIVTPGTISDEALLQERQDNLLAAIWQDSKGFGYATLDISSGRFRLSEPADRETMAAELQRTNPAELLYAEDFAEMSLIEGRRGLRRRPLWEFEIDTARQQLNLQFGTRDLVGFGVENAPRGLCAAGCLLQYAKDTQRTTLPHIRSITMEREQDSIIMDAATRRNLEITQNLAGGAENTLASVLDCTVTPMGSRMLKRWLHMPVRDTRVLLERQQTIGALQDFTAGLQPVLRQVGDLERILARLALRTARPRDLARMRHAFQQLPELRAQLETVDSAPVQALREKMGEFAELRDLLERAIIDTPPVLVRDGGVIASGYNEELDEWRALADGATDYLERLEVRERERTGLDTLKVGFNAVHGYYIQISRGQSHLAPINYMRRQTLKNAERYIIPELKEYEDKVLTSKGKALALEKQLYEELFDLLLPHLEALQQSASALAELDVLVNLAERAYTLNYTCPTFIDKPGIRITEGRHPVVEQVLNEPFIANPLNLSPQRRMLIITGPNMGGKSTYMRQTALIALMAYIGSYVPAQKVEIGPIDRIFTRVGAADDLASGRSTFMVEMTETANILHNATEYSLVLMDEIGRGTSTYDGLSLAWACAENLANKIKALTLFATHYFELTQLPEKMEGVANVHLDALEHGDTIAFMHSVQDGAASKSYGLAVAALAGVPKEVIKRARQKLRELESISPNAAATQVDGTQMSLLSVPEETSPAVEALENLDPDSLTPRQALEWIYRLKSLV
Test: co-IP

FtsZ (from UniProt P0A9A6 1-383) was tested, and the binding was “binds”.
